Experimental data published in the supplement of paper PMC10338343.
± gives the standard deviation. The list shows a part of the results, in another mix than the full data. Many entries were measured with a wide error. Some of the results follow.

What was measured:
[1] = system: MILI (PIWIL2) piRISC loaded with L1MC piRNA (26 nt); experiment: pre-steady-state target cleavage rate (min^-1); higher = faster piRNA-guided slicing of the target; settings: guide: L1MC piRNA 5'p-UAACUAAAUACUAUGCAAGCUGUAGG
Outline: (§1)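 The pre-steady-state cleavage rate was obtained by Cleave-'n-Seq with a burst-and-steady-state fit. A transcribed, DNA-blocked target RNA library (0.1 nM) was mixed with 1 nM active affinity-purified piRISC carrying one synthetic guide, with or without 500 nM GTSF1 partner protein, in HEPES–potassium acetate buffer at 33 °C for 0–8 or 0–960 min. Uncleaved targets were sequenced and normalised to depth and to weakly complementary targets, with three trials pooled and k3 capped at 0.0001 min^-1.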

[2] = system: MIWI (PIWIL1) piRISC loaded with L1MC piRNA (30 nt); experiment: as above; settings: guide: L1MC piRNA 5'p-UAACUAAAUACUAUGCAAGCUGUAGGUCCU
Outline: as §1

[3] = system: EfPiwi piRISC loaded with L1MC piRNA (26 nt); experiment: pre-steady-state target cleavage rate (min^-1); guide: L1MC piRNA 5'p-UAACUAAAUACUAUGCAAGCUGUAGG; MIWI and MILI are mouse PIWI proteins and EfPiwi is from a freshwater sponge; tags in brackets are library labels; higher = faster piRNA-guided slicing of the target
Outline: as §1

[4] = auxiliary factor: 500 nM mouse GTSF1
[5] = auxiliary factor: none (no GTSF1)
[6] = auxiliary factor: 500 nM Ephydatia muelleri Gtsf1
[7] = auxiliary factor: none (no Gtsf1)

| Sequence | pre-steady-state target cleavage rate [1, 4] | pre-steady-state target cleavage rate [1, 5] | pre-steady-state target cleavage rate [2, 5] | pre-steady-state target cleavage rate [3, 6] | pre-steady-state target cleavage rate [3, 7] | pre-steady-state target cleavage rate [2, 4] |
| --- | --- | --- | --- | --- | --- | --- |
| UCCUGGUACAGCUUGCUAAGUAUUUAGAAA | 0.0132 ± 0.0056 | 0.000817 ± 0.0063 | 0.00161 ± 0.0041 | 0.00205 ± 0.0037 | 0.00019 ± 0.041 | – |
| UCCUGGAUGUCGAAGCAUAGUAGUUUAGUUA | 0.00907 ± 0.0034 | 0.00276 ± 0.0022 | – | 0.000479 ± 0.012 | 0.000409 ± 0.016 | 0.000187 ± 0.045 |
| UCCUGGAUGUGCUUGGAUAGUAUUUAGUAA | 0.117 ± 0.021 | 0.00233 ± 0.0032 | – | 0.00252 ± 0.0037 | 0.000463 ± 0.024 | – |
| UCCUGCUACAGCUUGCAUAGUAAAAAGAAA | 0.0111 ± 0.0048 | 0.000722 ± 0.0092 | 0.000855 ± 0.0082 | 0.0018 ± 0.0024 | 0.00015 ± 0.031 | – |
| UCCUGGAUGAGCUUGCAUAGUAUUUAGCUUA | 0.104 ± 0.026 | 0.00163 ± 0.0051 | – | 0.00409 ± 0.0018 | 0.000673 ± 0.013 | – |
| UCCUGGAUGAGCUUGCAUAGUUUUUAGAUA | 0.00379 ± 0.0042 | 0.00127 ± 0.0054 | – | 0.00154 ± 0.0037 | < 0.0001 | – |
| UCCUCCUACAGCUUGCAUAGUAUAAUGUAA | 0.046 ± 0.014 | 0.000639 ± 0.0098 | 0.00194 ± 0.0029 | 0.00413 ± 0.0027 | 0.00014 ± 0.019 | – |
| UCCUGGAACAGGCUUGCAUAGUAUUUAGUUA | 0.219 ± 0.019 | 0.0094 ± 0.0029 | – | 0.0145 ± 0.0037 | 0.00165 ± 0.0057 | – |
| UCCUGGUACAGCUUGCAUAGUAAUUUAGUUA | 0.186 ± 0.025 | 0.0129 ± 0.0045 | – | 0.00647 ± 0.0026 | 0.00122 ± 0.011 | – |
| UCCUGGAUCAGCUUGCAAAGUAUAUAGUUA | 0.104 ± 0.012 | 0.00771 ± 0.0027 | – | 0.00171 ± 0.0054 | 0.000646 ± 0.013 | – |
| UCCUGGAUGUCGAUGCAUAGAUUUAGUUA | 0.00137 ± 0.0055 | 0.000668 ± 0.0061 | 0.0012 ± 0.0054 | 0.000174 ± 0.019 | 0.000266 ± 0.017 | – |
| UCCUGGAACAGGUUGCAUAGUAUUAAGUUA | 0.213 ± 0.023 | 0.00415 ± 0.0022 | – | 0.00329 ± 0.0021 | 0.000662 ± 0.011 | – |
| UCCUGGUAGAGCUUGCUUAGUAUUUAGUUA | 0.226 ± 0.012 | 0.00793 ± 0.0029 | – | 0.00885 ± 0.0045 | 0.0015 ± 0.008 | – |
| UCCUGGAUGUCGAUGCUAUGUAUUUAGUUA | 0.000508 ± 0.014 | 0.000498 ± 0.0091 | 0.000682 ± 0.0097 | 0.000154 ± 0.023 | 0.000238 ± 0.021 | – |
| UCCUCCUACAGCAUGCAUAGUAUUUUCAAA | 0.138 ± 0.03 | 0.0013 ± 0.0046 | 0.00094 ± 0.0066 | 0.00326 ± 0.0034 | 0.000221 ± 0.019 | – |
| UCCUGCUACAGCUUGCAUAGUAUUUAGUA | 0.335 ± 0.07 | 0.00209 ± 0.0033 | – | 0.00529 ± 0.0019 | 0.000582 ± 0.01 | – |
| UCCUGGAUGAGCUUGCUAUGUAUUUAGAAA | 0.00149 ± 0.0063 | 0.00158 ± 0.0035 | 0.00104 ± 0.0065 | 0.00081 ± 0.0071 | 0.000686 ± 0.013 | – |
| UCCUGGAUGUCGAAGAAUAGUAUUUAGUUA | 0.000917 ± 0.0073 | 0.000437 ± 0.012 | 0.000262 ± 0.012 | 0.000318 ± 0.0085 | < 0.0001 | – |
| UCCUCCUACACGUUGCAUAGUAUUUAGAAA | 0.161 ± 0.029 | 0.00164 ± 0.0044 | 0.0018 ± 0.0044 | 0.00396 ± 0.003 | 0.000409 ± 0.014 | – |
| UCCUGGAUGUCGAUGCUUAGUAUUAAGUUA | 0.00316 ± 0.0048 | 0.000344 ± 0.012 | 0.000462 ± 0.01 | 0.000575 ± 0.0091 | 0.000136 ± 0.044 | – |
| UCCUGGAACACGUUGCAUAGUAUUUACAAA | 0.0879 ± 0.017 | 0.00155 ± 0.0041 | 0.00174 ± 0.0047 | 0.000348 ± 0.02 | 0.000109 ± 0.03 | – |

6 successive entries from above, for reference:

| Sequence | pre-steady-state target cleavage rate [1, 4] | pre-steady-state target cleavage rate [1, 5] | pre-steady-state target cleavage rate [2, 5] | pre-steady-state target cleavage rate [3, 6] | pre-steady-state target cleavage rate [3, 7] | pre-steady-state target cleavage rate [2, 4] |
| --- | --- | --- | --- | --- | --- | --- |
| UCCUGGAUGUCGAUGCAUAGAUUUAGUUA | 0.00137 ± 0.0055 | 0.000668 ± 0.0061 | 0.0012 ± 0.0054 | 0.000174 ± 0.019 | 0.000266 ± 0.017 | – |
| UCCUGGAACAGGUUGCAUAGUAUUAAGUUA | 0.213 ± 0.023 | 0.00415 ± 0.0022 | – | 0.00329 ± 0.0021 | 0.000662 ± 0.011 | – |
| UCCUGGUAGAGCUUGCUUAGUAUUUAGUUA | 0.226 ± 0.012 | 0.00793 ± 0.0029 | – | 0.00885 ± 0.0045 | 0.0015 ± 0.008 | – |
| UCCUGGAUGUCGAUGCUAUGUAUUUAGUUA | 0.000508 ± 0.014 | 0.000498 ± 0.0091 | 0.000682 ± 0.0097 | 0.000154 ± 0.023 | 0.000238 ± 0.021 | – |
| UCCUCCUACAGCAUGCAUAGUAUUUUCAAA | 0.138 ± 0.03 | 0.0013 ± 0.0046 | 0.00094 ± 0.0066 | 0.00326 ± 0.0034 | 0.000221 ± 0.019 | – |
| UCCUGCUACAGCUUGCAUAGUAUUUAGUA | 0.335 ± 0.07 | 0.00209 ± 0.0033 | – | 0.00529 ± 0.0019 | 0.000582 ± 0.01 | – |
